These are yes or no findings as the source states them, for the method shown. Binding seen in cells or lysates may run through a third protein. Here binding means that the protein was enriched with, or labelled near, the bait; the list need not be complete.
Biological target: PARP1 (poly (ADP-ribose) polymerase 1) (human (endogenous in PC3)) (UniProt P09874)
Assay: affinity purification with mass spectrometry; IP from nuclear protein extracts of PC3 cells, immunoprecipitated proteins analysed by MS, compared with a control group

Sequences of proteins named here, by UniProt entry; tags and fusion partners are left off.
UniProt P09874: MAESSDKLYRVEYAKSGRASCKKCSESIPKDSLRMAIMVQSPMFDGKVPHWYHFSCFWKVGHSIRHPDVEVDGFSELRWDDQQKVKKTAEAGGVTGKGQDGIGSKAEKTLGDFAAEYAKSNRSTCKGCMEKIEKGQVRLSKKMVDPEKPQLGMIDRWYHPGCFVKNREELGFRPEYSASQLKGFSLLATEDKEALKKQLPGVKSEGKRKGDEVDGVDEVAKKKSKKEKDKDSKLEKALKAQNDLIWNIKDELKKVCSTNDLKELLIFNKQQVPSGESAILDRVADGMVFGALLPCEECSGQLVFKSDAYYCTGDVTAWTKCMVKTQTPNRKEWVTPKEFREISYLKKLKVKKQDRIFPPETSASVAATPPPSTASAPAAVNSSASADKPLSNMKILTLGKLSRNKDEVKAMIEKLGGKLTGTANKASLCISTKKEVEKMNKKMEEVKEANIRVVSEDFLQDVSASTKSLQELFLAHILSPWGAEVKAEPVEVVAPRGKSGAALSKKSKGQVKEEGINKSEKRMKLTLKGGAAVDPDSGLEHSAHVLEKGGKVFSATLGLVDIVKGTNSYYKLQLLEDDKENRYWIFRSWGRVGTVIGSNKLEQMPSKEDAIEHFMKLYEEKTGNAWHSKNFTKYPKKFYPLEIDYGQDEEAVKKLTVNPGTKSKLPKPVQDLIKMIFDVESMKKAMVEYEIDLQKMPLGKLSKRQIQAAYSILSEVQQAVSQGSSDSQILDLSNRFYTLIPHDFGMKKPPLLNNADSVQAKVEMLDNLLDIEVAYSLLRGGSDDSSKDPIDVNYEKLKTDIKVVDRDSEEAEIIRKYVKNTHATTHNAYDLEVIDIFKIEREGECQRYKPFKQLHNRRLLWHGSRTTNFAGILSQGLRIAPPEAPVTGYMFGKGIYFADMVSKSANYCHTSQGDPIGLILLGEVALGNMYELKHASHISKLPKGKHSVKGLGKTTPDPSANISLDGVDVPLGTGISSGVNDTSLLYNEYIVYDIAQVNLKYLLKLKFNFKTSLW
UniProt P08238: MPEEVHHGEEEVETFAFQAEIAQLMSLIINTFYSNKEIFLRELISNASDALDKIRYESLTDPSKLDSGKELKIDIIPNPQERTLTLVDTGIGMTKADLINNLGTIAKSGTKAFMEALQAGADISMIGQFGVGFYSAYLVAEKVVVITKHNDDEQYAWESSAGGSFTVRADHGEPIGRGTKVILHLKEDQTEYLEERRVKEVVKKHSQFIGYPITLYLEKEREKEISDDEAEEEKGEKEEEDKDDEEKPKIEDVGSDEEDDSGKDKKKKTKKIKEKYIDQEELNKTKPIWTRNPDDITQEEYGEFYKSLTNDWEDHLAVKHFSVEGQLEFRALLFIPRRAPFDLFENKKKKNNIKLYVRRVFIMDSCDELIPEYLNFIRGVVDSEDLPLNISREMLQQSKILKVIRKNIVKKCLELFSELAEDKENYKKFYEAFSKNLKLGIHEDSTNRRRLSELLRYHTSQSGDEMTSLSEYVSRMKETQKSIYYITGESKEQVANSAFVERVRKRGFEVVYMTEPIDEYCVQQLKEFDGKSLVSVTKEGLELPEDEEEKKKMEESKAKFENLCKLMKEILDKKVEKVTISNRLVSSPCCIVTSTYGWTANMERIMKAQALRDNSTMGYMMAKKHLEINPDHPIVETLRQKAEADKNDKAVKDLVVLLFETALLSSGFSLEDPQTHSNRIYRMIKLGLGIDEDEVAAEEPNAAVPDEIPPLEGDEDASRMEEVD

binding: binds
Substance: HSP90AB1 (heat shock protein alpha family class B) (from UniProt P08238 1-724)

Source: paper PMC10324254
